In the supplement of paper PMC10849652:
Some of the results follow.

Chains of the proteins cited; added tags and fusions are not shown. Lines headed by an entry give the natural chain unless they say otherwise; changes in a name come on top.
UniProt P28328: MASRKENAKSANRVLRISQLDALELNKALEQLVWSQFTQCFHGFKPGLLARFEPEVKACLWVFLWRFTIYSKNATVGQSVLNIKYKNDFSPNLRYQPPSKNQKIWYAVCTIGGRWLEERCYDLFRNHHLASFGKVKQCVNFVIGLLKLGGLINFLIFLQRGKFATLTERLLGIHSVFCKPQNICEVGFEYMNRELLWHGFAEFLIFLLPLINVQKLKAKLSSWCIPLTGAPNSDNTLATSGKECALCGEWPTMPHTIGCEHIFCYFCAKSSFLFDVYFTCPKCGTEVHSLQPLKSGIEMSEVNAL
UniProt O00408, whole entry, looked up: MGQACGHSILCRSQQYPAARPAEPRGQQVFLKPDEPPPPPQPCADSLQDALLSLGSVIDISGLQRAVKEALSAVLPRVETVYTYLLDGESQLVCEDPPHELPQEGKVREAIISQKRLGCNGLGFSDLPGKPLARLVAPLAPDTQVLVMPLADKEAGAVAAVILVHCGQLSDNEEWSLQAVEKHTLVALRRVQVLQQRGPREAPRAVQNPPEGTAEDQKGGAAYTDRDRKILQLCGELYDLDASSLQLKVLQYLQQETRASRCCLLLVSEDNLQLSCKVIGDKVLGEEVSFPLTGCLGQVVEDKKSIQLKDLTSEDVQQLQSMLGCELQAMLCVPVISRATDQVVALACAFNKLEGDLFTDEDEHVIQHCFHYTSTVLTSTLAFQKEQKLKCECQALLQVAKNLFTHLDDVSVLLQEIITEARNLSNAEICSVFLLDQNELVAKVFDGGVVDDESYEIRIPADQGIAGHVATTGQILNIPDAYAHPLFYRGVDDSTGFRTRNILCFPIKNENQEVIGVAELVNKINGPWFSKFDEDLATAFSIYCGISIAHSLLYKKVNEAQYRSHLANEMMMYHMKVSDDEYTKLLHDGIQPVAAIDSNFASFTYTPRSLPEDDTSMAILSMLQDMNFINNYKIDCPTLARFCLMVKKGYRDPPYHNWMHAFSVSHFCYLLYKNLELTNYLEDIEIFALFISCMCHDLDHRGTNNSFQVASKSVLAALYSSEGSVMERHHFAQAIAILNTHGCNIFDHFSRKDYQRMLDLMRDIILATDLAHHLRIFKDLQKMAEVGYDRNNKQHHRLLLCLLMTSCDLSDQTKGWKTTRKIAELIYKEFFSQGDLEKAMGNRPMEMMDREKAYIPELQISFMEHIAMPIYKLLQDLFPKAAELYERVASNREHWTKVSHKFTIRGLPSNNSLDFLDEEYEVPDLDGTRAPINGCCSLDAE
UniProt Q9BRX2, whole entry, looked up: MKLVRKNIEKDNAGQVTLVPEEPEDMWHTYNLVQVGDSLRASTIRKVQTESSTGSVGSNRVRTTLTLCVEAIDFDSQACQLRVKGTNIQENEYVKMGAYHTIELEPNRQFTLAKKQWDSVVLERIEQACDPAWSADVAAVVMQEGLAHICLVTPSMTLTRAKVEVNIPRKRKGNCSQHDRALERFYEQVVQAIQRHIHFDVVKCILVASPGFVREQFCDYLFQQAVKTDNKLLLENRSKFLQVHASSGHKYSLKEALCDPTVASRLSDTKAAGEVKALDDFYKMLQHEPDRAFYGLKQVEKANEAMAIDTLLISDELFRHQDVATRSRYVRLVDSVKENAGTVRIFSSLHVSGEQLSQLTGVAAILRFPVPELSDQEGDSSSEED
UniProt Q9H0J9: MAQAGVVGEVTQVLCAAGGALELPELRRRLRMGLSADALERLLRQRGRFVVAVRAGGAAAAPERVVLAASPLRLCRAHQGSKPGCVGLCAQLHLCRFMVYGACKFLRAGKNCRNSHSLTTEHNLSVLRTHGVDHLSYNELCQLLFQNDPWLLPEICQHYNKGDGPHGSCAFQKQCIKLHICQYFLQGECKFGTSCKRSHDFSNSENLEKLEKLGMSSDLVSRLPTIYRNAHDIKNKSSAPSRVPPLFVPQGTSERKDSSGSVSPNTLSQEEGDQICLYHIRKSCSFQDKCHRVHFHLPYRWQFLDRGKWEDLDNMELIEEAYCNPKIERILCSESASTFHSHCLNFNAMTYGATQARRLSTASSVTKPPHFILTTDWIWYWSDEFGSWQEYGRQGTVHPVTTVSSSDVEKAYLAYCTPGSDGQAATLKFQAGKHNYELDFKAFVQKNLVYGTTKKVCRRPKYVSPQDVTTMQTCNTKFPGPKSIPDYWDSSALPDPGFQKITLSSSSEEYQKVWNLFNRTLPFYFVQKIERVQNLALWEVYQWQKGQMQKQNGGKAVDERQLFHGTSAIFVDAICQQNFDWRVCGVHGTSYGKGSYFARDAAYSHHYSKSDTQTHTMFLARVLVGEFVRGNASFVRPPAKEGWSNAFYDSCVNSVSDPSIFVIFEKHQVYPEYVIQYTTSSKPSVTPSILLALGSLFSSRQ
UniProt P0DJ07: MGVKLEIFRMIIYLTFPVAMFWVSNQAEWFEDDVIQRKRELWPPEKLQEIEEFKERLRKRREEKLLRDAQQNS
UniProt Q9BYE7: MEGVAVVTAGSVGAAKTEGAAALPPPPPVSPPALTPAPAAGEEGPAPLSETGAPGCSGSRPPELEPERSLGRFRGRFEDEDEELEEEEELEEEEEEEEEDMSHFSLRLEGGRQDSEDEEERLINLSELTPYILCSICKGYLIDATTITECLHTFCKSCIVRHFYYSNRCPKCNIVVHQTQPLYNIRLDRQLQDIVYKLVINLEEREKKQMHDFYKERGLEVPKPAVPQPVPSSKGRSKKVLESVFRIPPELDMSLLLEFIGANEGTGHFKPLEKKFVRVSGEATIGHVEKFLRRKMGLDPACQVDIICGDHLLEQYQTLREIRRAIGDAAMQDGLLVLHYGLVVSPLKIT
UniProt Q9BY49: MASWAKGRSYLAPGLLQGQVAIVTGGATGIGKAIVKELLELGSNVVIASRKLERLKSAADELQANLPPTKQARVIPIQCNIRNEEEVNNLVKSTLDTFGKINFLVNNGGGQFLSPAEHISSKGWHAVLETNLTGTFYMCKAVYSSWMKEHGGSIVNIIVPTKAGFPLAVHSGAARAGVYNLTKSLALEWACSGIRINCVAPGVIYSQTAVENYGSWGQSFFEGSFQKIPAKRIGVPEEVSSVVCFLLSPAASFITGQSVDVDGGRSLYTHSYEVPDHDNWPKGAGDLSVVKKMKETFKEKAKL
UniProt Q3KNV8: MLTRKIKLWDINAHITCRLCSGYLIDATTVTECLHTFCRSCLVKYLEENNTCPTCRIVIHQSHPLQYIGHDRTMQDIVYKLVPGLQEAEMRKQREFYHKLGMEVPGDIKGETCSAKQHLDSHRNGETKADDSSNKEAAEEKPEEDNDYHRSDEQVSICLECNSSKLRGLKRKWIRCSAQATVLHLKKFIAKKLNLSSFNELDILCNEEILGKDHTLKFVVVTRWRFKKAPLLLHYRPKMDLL
UniProt O60683: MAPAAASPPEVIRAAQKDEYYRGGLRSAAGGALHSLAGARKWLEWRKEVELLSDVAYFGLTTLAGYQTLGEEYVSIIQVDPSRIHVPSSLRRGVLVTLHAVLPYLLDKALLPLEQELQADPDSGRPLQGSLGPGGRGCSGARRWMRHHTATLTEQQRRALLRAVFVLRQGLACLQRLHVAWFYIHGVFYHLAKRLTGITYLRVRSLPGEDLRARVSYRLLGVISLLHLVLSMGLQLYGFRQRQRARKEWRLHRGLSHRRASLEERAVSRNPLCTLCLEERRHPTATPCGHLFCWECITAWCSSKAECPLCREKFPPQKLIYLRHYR

Assays:
Test in all cases: log2 fold change, soluble protein after heating vs DMSO (PISA); higher = thermal stabilisation; K562 lysate, 10 uM; active = over 0.2 and 3.5 SD of the protein, either way, in both replicates (recomputed)
[1] = compound: CS(=O)(=O)CCNCc1ccc(-c2ccc3ncnc(Nc4ccc(OCc5cccc(F)c5)c(Cl)c4)c3c2)o1 [lapatinib]
In short: (§1)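 The values are log-two fold changes in thermal stability compared with solvent controls and come from duplicates. They were obtained by TMTpro 16plex LC-MS/MS, with channel sums equalised, on the supernatant after 21,000xg for 90 min. That supernatant came from crude K562 extract at 1 mg/mL protein treated with 10 μM compound for 30 min, heated for 3 min across 48°C-58°C, pooled and brought to 0.5% NP-40 at 4°C.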

[2] = compound: CS(=O)(=O)N1CCN(Cc2cc3nc(-c4cccc5[nH]ncc45)nc(N4CCOCC4)c3s2)CC1 [pictilisib]
In short: as §1

[3] = compound: C[C@@H](Oc1cc(-c2cnn(C3CCNCC3)c2)cnc1N)c1c(Cl)ccc(F)c1Cl [crizotinib]
In short: as §1

[4] = compound: C[C@H](C1=CC=C(C=C1)C(=O)NC2=C3C=CNC3=NC=C2)N
In short: as §1

[5] = compound: C[C@H](Nc1ncnc2nc[nH]c12)c1cc2cccc(Cl)c2c(=O)n1-c1ccccc1 [duvelisib]
In short: as §1

[6] = compound: Cc1cc(Nc2cc(CN3CCOCC3)c3nc(C)c(Cc4ccc(Cl)cc4F)n3n2)n[nH]1 [gandotinib]
In short: as §1

[7] = compound: Cc1ccc(-n2nc(C(C)(C)C)cc2NC(=O)Nc2ccc(OCCN3CCOCC3)c3ccccc23)cc1 [doramapimod]
In short: as §1

[8] = compound: Cc1ccc(NC(=O)c2ccc(CN3CC[C@H](N(C)C)C3)c(C(F)(F)F)c2)cc1Nc1nccc(-c2cncnc2)n1 [bafetinib]
In short: as §1

[9] = compound: Cc1cccc(CC(=O)N2CCc3c2ccc(-c2cn(C)c4ncnc(N)c24)c3F)n1
In short: as §1

[10] = compound: Cc1cn(-c2cc(NC(=O)c3ccc(C)c(Nc4nccc(-c5cccnc5)n4)c3)cc(C(F)(F)F)c2)cn1 [nilotinib]
In short: as §1

[11] = compound: Cc1nc(Nc2n[nH]c3c2CN(C(=O)N[C@H](CN(C)C)c2ccccc2)C3(C)C)c2sccc2n1
In short: as §1

[12] = compound: Cc1nc(Nc2ncc(C(=O)Nc3c(C)cccc3Cl)s2)cc(N2CCN(CCO)CC2)n1 [dasatinib]
In short: as §1

[13] = compound: Cc1ncc(-c2ccnc(Nc3ccc(S(C)(=O)=O)cc3)n2)n1C(C)C
In short: as §1

[14] = compound: Cn1cc(-c2ccc3c(c2)CCN3C(=O)Cc2cccc(C(F)(F)F)c2)c2c(N)ncnc21
In short: as §1

[15] = compound: Cn1cc(CNCC2CCN(c3ncc(C(=O)NO)cn3)CC2)c2ccccc21 [quisinostat]
In short: as §1

[16] = compound: Cn1cncc1[C@@](N)(c1ccc(Cl)cc1)c1ccc2c(c1)c(-c1cccc(Cl)c1)cc(=O)n2C [tipifarnib]
In short: as §1

[17] = compound: NC(=O)Nc1cc(-c2cccc(F)c2)sc1C(=O)N[C@H]1CCCNC1
In short: as §1

[18] = compound: NC(=O)c1cnc(N[C@@H]2CCCC[C@@H]2N)nc1Nc1cccc(-n2nccn2)c1
In short: as §1

[19] = compound: NC1(c2ccc(-c3nc4ccn5c(=O)[nH]nc5c4cc3-c3ccccc3)cc2)CCC1
In short: as §1

[20] = compound: Cc1cc(Nc2cc(N3CCN(C)CC3)nc(Sc3ccc(NC(=O)C4CC4)cc3)n2)n[nH]1 [tozasertib]
In short: as §1

Measured: log2 fold change

PEX2 (UniProt P28328)
inactive: [1] -0.081 | [2] 0.035 | [3] -0.041 | [4] -0.04 | [5] -0.031 | [6] 0.096 | [7] -0.151 | [8] -0.218 | [9] 0.149 | [10] 0.059 | [11] -0.158 | [12] -0.078 | [13] -0.041 | [14] 0.039 | [15] 0.054 | [16] 0.048 | [17] 0.143 | [18] 0.116 | [19] -0.106

PDE2A (UniProt O00408)
inactive: [1] 0.005 | [2] 0 | [3] 0.074 | [4] 0.05 | [5] -0.042 | [6] 0.138 | [20] 0.049 | [7] -0.057 | [8] 0.051 | [9] 0.041 | [10] 0.021 | [11] -0.033 | [12] 0.042 | [13] -0.008 | [14] 0.035 | [15] 0.026 | [16] 0.042 | [17] 0.006 | [18] 0.08 | [19] -0.184

PELO (UniProt Q9BRX2)
inactive: [1] 0.036 | [2] 0.001 | [3] -0.064 | [5] -0.039 | [6] -0.202 | [20] 0.022 | [7] 0.019 | [8] -0.054 | [9] -0.175 | [10] 0.012 | [11] -0.025 | [12] 0.052 | [13] -0.026 | [14] 0.032 | [15] -0.022 | [16] 0.007 | [17] 0.037 | [18] 0.018 | [19] -0.029
active: [4] 0.369

PARP12 (UniProt Q9H0J9)
inactive: [1] -0.052 | [2] -0.028 | [3] -0.182 | [5] -0.062 | [20] -0.043 | [7] -0.048 | [8] -0.077 | [12] -0.038 | [14] -0.021 | [15] -0.201 | [17] 0.102 | [18] 0.066 | [19] -0.204

PET100 (UniProt P0DJ07)
inactive: [1] 0 | [2] -0.047 | [3] 0.092 | [4] 0.16 | [5] -0.056 | [6] -0.195 | [20] 0.007 | [7] -0.048 | [8] 0.022 | [9] -0.187 | [10] -0.08 | [11] 0 | [12] -0.025 | [13] 0.059 | [14] 0.092 | [15] 0.17 | [16] 0.079 | [17] -0.022 | [18] 0.097 | [19] 0.027

PCGF6 (UniProt Q9BYE7)
inactive: [1] 0.237 | [3] -0.08 | [4] 0.108 | [5] -0.011 | [6] -0.027 | [7] -0.004 | [9] -0.051 | [10] 0.038 | [11] -0.016 | [12] 0.028 | [13] -0.08 | [14] 0.037 | [15] 0.052 | [16] 0.053 | [17] 0.174 | [18] 0.015 | [19] 0.147

PECR (UniProt Q9BY49)
inactive: [20] -0.053

PCGF3 isoform 2 (UniProt Q3KNV8)
inactive: [3] -0.135 | [7] -0.17 | [15] -0.046 | [17] 0.02 | [19] -0.147

PEX10 isoform 2 (UniProt O60683)
inactive: [2] -0.109 | [8] -0.355
